Assay results: PubChem BioAssay AID2283131 (EPA ToxCast)
This list was built around the results that the source calls inconclusive (neither active nor inactive); the mix of calls is not that of the screen. Where the call is inconclusive, the potency comes from a doubtful curve fit. Calls of active or inactive are those of the source. The calls were made as follows: active = hit-call score of the fitted dose curve at least 0.9, where 1 is the maximum; inconclusive = response in the unintended direction; inactive = score below 0.9.

Sequences of proteins named here, by UniProt entry; tags and fusion partners are left off. A change or cut given only in a name is not applied to a line headed by its entry.
UniProt Q06187: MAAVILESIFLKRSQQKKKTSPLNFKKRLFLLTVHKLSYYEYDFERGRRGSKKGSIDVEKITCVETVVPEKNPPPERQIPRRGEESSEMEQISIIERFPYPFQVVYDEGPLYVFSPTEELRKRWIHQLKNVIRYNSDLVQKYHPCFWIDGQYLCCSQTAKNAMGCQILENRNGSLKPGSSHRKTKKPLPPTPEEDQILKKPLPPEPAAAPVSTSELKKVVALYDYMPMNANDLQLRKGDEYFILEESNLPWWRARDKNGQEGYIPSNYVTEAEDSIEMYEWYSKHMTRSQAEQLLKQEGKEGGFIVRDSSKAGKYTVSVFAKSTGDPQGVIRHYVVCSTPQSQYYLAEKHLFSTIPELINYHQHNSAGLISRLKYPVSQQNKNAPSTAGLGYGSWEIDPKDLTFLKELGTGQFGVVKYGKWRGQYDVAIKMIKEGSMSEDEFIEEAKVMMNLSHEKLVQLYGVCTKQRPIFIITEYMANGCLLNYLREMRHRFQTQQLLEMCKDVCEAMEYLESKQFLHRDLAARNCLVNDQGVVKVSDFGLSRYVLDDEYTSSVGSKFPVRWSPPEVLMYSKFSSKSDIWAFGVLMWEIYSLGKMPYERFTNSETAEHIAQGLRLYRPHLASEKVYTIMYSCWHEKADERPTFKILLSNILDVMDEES

Each molecule was assayed against human Bruton's Tyrosine Kinase (BTK), BTK (gene 695) (UniProt Q06187) (assay: NVS_ENZ_hBTK: NovaScreen (NVS) Enzymatic Assay for human Bruton's Tyrosine Kinase (BTK)).
Method: NVS_ENZ_hBTK is a biochemical, single-readout assay that uses extracted gene-proteins in a cell-free assay. Measurements were taken 1 hour after chemical dosing in a 96-well plate.NVS_ENZ_hBTK is one of one assay component(s) measured or calculated from the NVS_ENZ_hBTK assay. It is designed to make measurements of enzyme activity, a form of enzyme reporter, as detected with fluorescence intensity signals by Fluorescence and electrophoretic mobility shift technology.Data from the assay component NVS_ENZ_hBTK was analyzed into 1 assay endpoint. This assay endpoint, NVS_ENZ_hBTK, was analyzed in the positive analysis fitting direction relative to DMSO as the negative control and baseline of activity. Using a type of enzyme reporter, loss-of-signal activity can be used to understand changes in the enzymatic activity as they relate to the gene BTK. Furthermore, this assay endpoint can be referred to as a primary readout, because this assay has produced multiple assay endpoints where this one serves a enzymatic activity function. To generalize the intended target to other relatable targets, this assay endpoint is annotated to the kinase intended target family, where the subfamily is non-receptor tyrosine kinase.
Binding assays used specific radioligands (tritiated, iodinated) with non-radioactive competitive displacement ligands in agonist or antagonist protocols (as indicated) and various reference compounds and inhibitors to titrate specific binding to receptors and transporters. Most enzyme assays (CYPs, kinases, phosphatases, proteases, HDACs) used recombinant protein and specific substrates (fluorescence mostly, some colorimetric and radioactive) and inhibitors, followed by a biochemical separation of substrate and product. All assays for the biochemical HTS were initially run in duplicate at a single concentration (10 uM for CYP450 assays and 25 uM for all others). […] Each assay was run with positive and negative controls, and concurrent controls on every plate. The follow-up (secondary) screen tested active chemical-pairs in concentration series, as well as a few additional assays not tested in the primary screen, some selected negative inactives, and several cases re-run in the concentration series for confirmatory purposes.

SMILES | AC50 | outcome
CCNC(=O)NC(=O)C(C#N)=NOC | inconclusive: 25 µM | 
O=S(=O)(O)C(F)(F)C(F)(F)C(F)(F)C(F)(F)C(F)(F)C(F)(F)C(F)(F)C(F)(F)F | active: 17.4 µM | 
N#Cc1c(Cl)c(Cl)c(Cl)c(C#N)c1Cl |  | inactive
CCNc1nc(Cl)nc(NCC)n1 | inconclusive: 25 µM | 
